Source: PubChem BioAssay AID1259267 (Sanger Institute, 2017)
Aim: 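Essential and drug-synergistic knock-downs in GP5D bowel cancer cells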 (primary screen). Cells: human GP5D colorectal cancer cells. Reagents: siRNA pool against human genes. Treatment: anchor drugs at low dose: BYL719 1 µM, cetuximab 5 µg/ml, trametinib 10 nM, or DMSO vehicle. Measurement: 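Viability against non-targeting pool, replicate mean: robust z-score for knock-down alone, fraction with DMSO, synergy with BYL719 1 µM, cetuximab 5 µg/ml, trametinib 10 nM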. Direction: robust z-score, knock-down alone and viability with DMSO: higher = more viable cells. Units: viability with DMSO in fraction of control. Rule for the call: 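Active (essential alone) if knock-down without drug gives robust z-score under -3; drug synergy does not count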. Meaning of the calls: active = essential alone; inactive = not essential.
The whole screen tested 794 reagents; this is a part drawn at random. 9 of them (1.1%) count as active. 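Viability capped at 1; calls reflect loss of viability from knock-down alone, not synergy with drugs.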 A number with no mark means an inactive call. Further read-outs or replicates are left out here. The record does not give: the amount of reagent, the time to read-out.

FGFRL1 (GeneID 53834) showed robust z-score, knock-down alone -1.98; viability with DMSO 0.408.
Depletion of MAP3K6 (GeneID 9064) resulted in: robust z-score, knock-down alone 0.817; viability with DMSO 1.
For BRDT (GeneID 676), the entry reads robust z-score, knock-down alone -1.54; viability with DMSO 0.5.
Against PKMYT1 (GeneID 9088), the entry reads robust z-score, knock-down alone 0.412; viability with DMSO 0.914.
Silencing of MAST2 (GeneID 23139) came out at: robust z-score, knock-down alone 0.817; viability with DMSO 1.
For CAMK2D (GeneID 817), the values are robust z-score, knock-down alone 0.817; viability with DMSO 1.
Depletion of AK1 (GeneID 203) gave: robust z-score, knock-down alone 0.379; viability with DMSO 0.907.
After knock-down of MAP3K15 (GeneID 389840) the results were robust z-score, knock-down alone 0.249; viability with DMSO 0.88.
After knock-down of LCK (GeneID 3932) the results were robust z-score, knock-down alone 0.817; viability with DMSO 1.
Against MAPK15 (GeneID 225689) the deposit lists robust z-score, knock-down alone -1.25; viability with DMSO 0.562.
After knock-down of TLK2 (GeneID 11011), the screen gave robust z-score, knock-down alone 0.377; viability with DMSO 0.907.
With knock-down of FGR (GeneID 2268) the results were robust z-score, knock-down alone -1.48; viability with DMSO 0.513.
After knock-down of DIS3 (GeneID 22894), the screen gave robust z-score, knock-down alone 0.585; viability with DMSO 0.951.
Depletion of CDK14 (GeneID 5218) gave: robust z-score, knock-down alone -1.58; viability with DMSO 0.492.
Against SF3B1 (GeneID 23451) the deposit lists robust z-score, knock-down alone -3.08 (active); viability with DMSO 0.174.
PNCK (GeneID 139728) showed robust z-score, knock-down alone 0.249; viability with DMSO 0.88.
For STK17A (GeneID 9263), the entry reads robust z-score, knock-down alone -0.574; viability with DMSO 0.705.
Against PIK3C2B (GeneID 5287), the entry reads robust z-score, knock-down alone 0.817; viability with DMSO 1.
FGFR3 (GeneID 2261) gave robust z-score, knock-down alone 0.518; viability with DMSO 0.937.

Entries above marked active (1):
SF3B1 (GeneID 23451) — robust z-score, knock-down alone = -3.08 (active); viability with DMSO = 0.174
